Results reported in PubChem BioAssay AID504834 (National Center for Advancing Translational Sciences (NCATS), 2011).
The whole screen tested about 320,000 compounds, of which about 22,000 (6.9%) were called active. The shares of active, inactive and inconclusive entries below differ from those in the screen. Calls follow the shape of the dose curve; as a rule, active = well fitted inhibition curve with a large enough effect; inconclusive = small, poorly fitted or top-dose-only effect, or another doubt; inactive = no such curve, though single readings can be large or run the other way. A potency beside an inconclusive call is a rough fit, not a confirmed value.

Assay: Primary qHTS for delayed death inhibitors of the malarial parasite plastid, 96 hour incubation
Details: P. falciparum luciferase reporter growth; series mostly up to 28.7 µM
Method in brief: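 P. falciparum expressing integrated firefly luciferase, in erythrocytes at 2% hematocrit, 0.05% parasitemia, incubated with compounds 96 h at 37 C, 5% CO2. Growth inhibition read as loss of luminescence; two-generation exposure targets delayed-death apicoplast inhibitors.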
% is scaled to controls: 0 for no effect and ±100 for the full control effect; potency is read from the fitted curve at half-maximal effect.

Q: With `Cc1[nH]n(-c2ccccc2)c(=O)c1/C=N/N(C)c1ccccc1` as the molecule, how does the Potency read?
A: The Potency was inconclusive: 18.5 µM [inhibitor, single point].

Q: For `COc1cccc(NC(=O)c2cn(C)c(=O)c3cc(OC)c(OC)cc23)c1`, which Potency is on record?
A: The Potency was inconclusive: 16.5 µM [inhibitor, single point].

Q: Which Potency does the source give for `O=c1cc(CN2CCN(C/C=C/c3ccccc3)CC2)c2cc(O)ccc2o1` here?
A: Its Potency is active: 2.94 µM.

Q: Which Potency does the source give for `CCN(Cc1ccc(NC(C)=O)cc1)CC1CCCN(CCc2cccc(F)c2)C1` (centres undefined) here?
A: The Potency was inconclusive: 18.5 µM [inhibitor, single point].

Q: Which Potency does the source give for `CC(NC(=O)c1cccc2ccccc12)c1ccc2c(c1)CCCC2` (centres undefined) here?
A: Its Potency is inconclusive: 2.94 µM [inhibitor, single point].

Q: Which Potency does the source give for `NCCSC1CC(=O)N(Cc2ccc(F)cc2)C1=O` (centres undefined) here?
A: Its Potency is inconclusive: 5.22 µM [inhibitor, partial curve, poor fit].

Q: For `CCN(CC)S(=O)(=O)c1ccc(/C=C/C(=O)Nc2ccc(F)cc2F)cc1`, which Potency is on record?
A: The Potency was active: 6.57 µM.

Q: Which Potency does the source give for `CC1CCN(CC(=O)Nc2ccc(Br)cc2[N+](=O)[O-])CC1` here?
A: The Potency was “inactive”.

Q: For `COc1ccc(Oc2ccc(/C=C/C(=O)c3ccc(O)cc3)cc2[N+](=O)[O-])cc1`, which Potency is on record?
A: Its Potency is active: 11.7 µM.

Q: Which Potency does the source give for `Cc1cc(C(=O)COc2ccc(F)cc2Br)c(C)n1C1CC1` here?
A: Its Potency is active: 10.4 µM.

Q: For `CC(C)NC(=O)C12CC3CC(C1)CC(C(=O)NC(C)C)(C3)C2`, which Potency is on record?
A: Its Potency is “inactive”.

Q: Which Potency does the source give for `C#CC1(O)CC(C)N(C)C(C)C1` (centres undefined) here?
A: The Potency was “inactive”.

Q: Which Potency does the source give for `COc1ccc(NC(=O)[C@@H](NC(=O)c2ccccc2F)C(C)C)cc1S(=O)(=O)N1CCOCC1` here?
A: Its Potency is inconclusive: 10.4 µM [inhibitor, single point].

Q: Which Potency does the source give for `CN(Cc1ccccc1Cl)C(=O)c1cnccc1C(F)(F)F` here?
A: The Potency was inconclusive: 7.38 µM [inhibitor, single point].

Q: For `C/C(=N\NC(=O)c1n[nH]c2c1CCC2)c1ccco1`, which Potency is on record?
A: The Potency was “inactive”.

Q: For `COc1cccc(CN2CCN(Cc3ccc4cccc(F)c4n3)CC2CCO)c1` (centres undefined), which Potency is on record?
A: Its Potency is “inactive”.

Q: Which Potency does the source give for `COc1cc2c3nnc(-c4ccc(F)cc4)c-3cn(Cc3cccc(F)c3)c2cc1OC` here?
A: The Potency was active: 1.04 µM.

Q: Which Potency does the source give for `CCSc1ncnc2sc(C)c(C)c12` here?
A: Its Potency is “inactive”.

Q: With `O=C(Cc1ccc(S(=O)(=O)N2CCOCC2)s1)N1CCN(c2cccc(C(F)(F)F)c2)CC1` as the molecule, how does the Potency read?
A: The Potency was active: 10.4 µM.

Q: For `Cc1noc(C(=O)Nc2c(C)nn(Cc3ccccc3)c2C)c1Cl`, which Potency is on record?
A: Its Potency is inconclusive: 18.5 µM [inhibitor, single point].

Q: Which Potency does the source give for `Cc1c(Cl)cccc1NC(=S)NCCc1ccc(Cl)cc1` here?
A: Its Potency is inconclusive: 2.94 µM [inhibitor, partial curve, poor fit].

Q: With `CCN(CC(=O)Nc1ccccc1C(F)(F)F)C(=O)c1oc2c(Cl)cccc2c1C` as the molecule, how does the Potency read?
A: The Potency was inconclusive: 18.5 µM [inhibitor, single point].

Q: Which Potency does the source give for `CC(=O)Nc1ccc2nc(NC(=O)COc3ccc(C)cc3)sc2c1` here?
A: The Potency was “inactive”.

Q: For `CCOC(=O)CN(C(=O)COc1nc(C)cc(C)c1C#N)c1ccc(Cl)cc1`, which Potency is on record?
A: Its Potency is inconclusive: 10.4 µM [inhibitor, single point].

Q: With `N#Cc1cccc(Nc2c3c(nc4ccccc24)CCC3)c1` as the molecule, how does the Potency read?
A: The Potency was “inactive”.

Q: For `CC(C)(C)OC(=O)N1CSC[C@H]1C(=O)NC[C@H](CC(=O)O)c1ccc(Cl)cc1`, which Potency is on record?
A: The Potency was “inactive”.

Q: With `O=C(Nc1c(C(=O)N2CCN(c3ccccn3)CC2)oc2ccccc12)c1ccc([N+](=O)[O-])cc1` as the molecule, how does the Potency read?
A: Its Potency is inconclusive: 11.7 µM [inhibitor, partial curve, poor fit].

Q: Which Potency does the source give for `Cc1ccc(OCCOc2cccc(C=C3C(=O)NC(=O)NC3=O)c2)cc1` here?
A: The Potency was “inactive”.

Q: For `Cc1ccc(NC(=O)Nc2ccc3c(c2)nnn3C)cc1C`, which Potency is on record?
A: Its Potency is inconclusive: 1.17 µM [inhibitor, full curve].

Q: With `COc1ccc([C@H]2CC(=O)C=C(c3ccc(OC)c(OC)c3)C2)cc1` as the molecule, how does the Potency read?
A: The Potency was inconclusive: 18.5 µM [inhibitor, single point].

Q: Which Potency does the source give for `CCSc1nnc(NC(=O)c2c(C)noc2C)s1` here?
A: The Potency was inconclusive: 18.5 µM [inhibitor, single point].

Q: For `CC(C)(C)C(=O)NC(NC(=S)Nc1ccc(S(N)(=O)=O)cc1)C(Cl)(Cl)Cl` (centres undefined), which Potency is on record?
A: Its Potency is inconclusive: 14.7 µM [inhibitor, partial curve, poor fit].

Q: For `CCCC[C@@H]1CNCCN1CCc1cccc2ccccc12`, which Potency is on record?
A: The Potency was inconclusive: 18.5 µM [inhibitor, single point].

Q: With `Cc1cc(C(=O)COC(=O)Cc2n[nH]c(=O)c3ccccc23)c(C)n1-c1ccc2c(c1)OCO2` as the molecule, how does the Potency read?
A: Its Potency is inconclusive: 5.22 µM [inhibitor, partial curve, poor fit].

Q: For `COc1ccc(N(C(=O)c2ccco2)C(C(=O)NC2CCCC2)c2cc(OC)c(OC)c(OC)c2)cc1` (centres undefined), which Potency is on record?
A: The Potency was inconclusive: 10.4 µM [inhibitor, single point].

Q: With `Cc1ccc(-c2nc3cnccn3c2Nc2ccccc2)o1` as the molecule, how does the Potency read?
A: The Potency was “inactive”.

Q: With `COC(=O)c1cccc(CSc2nnc(-c3ccco3)n2-c2ccccc2)c1` as the molecule, how does the Potency read?
A: The Potency was inconclusive: 13.1 µM [inhibitor, single point].

Q: With `Cn1c(CO)c(-c2ccccc2)c2cc([N+](=O)[O-])ccc21` as the molecule, how does the Potency read?
A: Its Potency is “inactive”.

Q: With `COc1ccc(CN2CCN(C(=O)c3ccco3)CC2)cc1OCc1ccccc1` as the molecule, how does the Potency read?
A: The Potency was active: 0.0928 µM.

Q: For `CC(C)Cn1c(=O)c2c(nc3n2CC(C)CN3Cc2ccccc2)n(C)c1=O` (centres undefined), which Potency is on record?
A: The Potency was inconclusive: 2.08 µM [inhibitor, full curve].

Q: With `COC(=O)c1ccccc1NC(=O)CSc1nnc(C(C)NC(=O)c2ccc(Cl)cc2Cl)n1C` (centres undefined) as the molecule, how does the Potency read?
A: The Potency was inconclusive: 18.5 µM [inhibitor, single point].

Q: Which Potency does the source give for `COc1ccccc1CCNC(=O)C(=O)c1cn(CC(=O)N2CCOCC2)c2ccccc12` here?
A: Its Potency is inconclusive: 1.65 µM [inhibitor, full curve].

Q: For `O=C(Nc1cccnc1Cl)c1cc(-c2ccc(O)cc2)on1`, which Potency is on record?
A: The Potency was “inactive”.

Q: For `COC(=O)c1ccc(NC(CC(C)C)C(=O)OC)c([N+](=O)[O-])c1` (centres undefined), which Potency is on record?
A: Its Potency is inconclusive: 18.5 µM [inhibitor, single point].

Q: With `Cc1ccc2c(c1)C(O)(CC(=O)/C=C/C=C/c1ccccc1)C(=O)N2` (centres undefined) as the molecule, how does the Potency read?
A: The Potency was inconclusive: 18.5 µM [inhibitor, single point].

Q: For `Cc1ccccc1S(=O)(=O)Nc1ncnc2scc(-c3ccccc3)c12`, which Potency is on record?
A: Its Potency is “inactive”.

Q: With `CCCCC(=O)OCC(=O)c1[nH]c(C)c(C(C)=O)c1C` as the molecule, how does the Potency read?
A: Its Potency is inconclusive: 0.0828 µM [inhibitor, full curve, poor fit].

Q: With `Nc1cc(Nc2ccc(Br)cc2)nc(N)n1` as the molecule, how does the Potency read?
A: Its Potency is active: 10.4 µM.

Q: With `O=C(CC1CCCCC1)c1c(O)c2ccccc2oc1=O` as the molecule, how does the Potency read?
A: The Potency was “inactive”.

Q: Which Potency does the source give for `O=c1ccc2cc(S(=O)(=O)Nc3ccccc3F)ccc2o1` here?
A: The Potency was “inactive”.

Q: For `COc1ccc([N+](=O)[O-])cc1NC(=O)c1ccc(-n2nc(C)cc2C)cc1`, which Potency is on record?
A: The Potency was “inactive”.

Q: Which Potency does the source give for `CC(C)COc1cccc(C(=O)N(CC(=O)Nc2ccccc2C(F)(F)F)Cc2ccco2)c1` here?
A: Its Potency is inconclusive: 10.4 µM [inhibitor, single point].

Q: With `Cc1cccc(CNc2ncnc3ccc(-c4ccccc4Cl)cc23)c1` as the molecule, how does the Potency read?
A: The Potency was active: 1.47 µM.

Q: Which Potency does the source give for `O=[N+]([O-])C(=C1NCCN1)C(Cl)=C(Cl)Cl` here?
A: The Potency was “inactive”.

Q: For `CCOC(=O)c1c(NC(=O)CSc2nncs2)sc(C)c1-c1ccccc1`, which Potency is on record?
A: Its Potency is inconclusive: 13.1 µM [inhibitor, single point].

Q: For `COc1ccc(-n2c(=O)[nH]cc(C(=O)Nc3ccc4c(c3)OCCO4)c2=O)cc1OC`, which Potency is on record?
A: The Potency was “inactive”.

Q: For `CCN(CC)CC(O)COCCC12CC3CC(CC(C3)C1)C2` (centres undefined), which Potency is on record?
A: Its Potency is inconclusive: 18.5 µM [inhibitor, single point].

Q: For `CC(=O)N[C@@H](Cc1c[nH]c2ccccc12)C(=O)NC1CC1`, which Potency is on record?
A: Its Potency is “inactive”.

Q: Which Potency does the source give for `CC(C)n1nnnc1SCC(=O)Nc1ccccc1F` here?
A: Its Potency is inconclusive: 5.86 µM [inhibitor, partial curve].

Q: With `COc1cc2c(cc1OC)CN(c1nc(-c3cccnc3)nc3ccccc13)CC2` as the molecule, how does the Potency read?
A: Its Potency is active: 11.7 µM.

Q: With `Cc1ccc2cccc(OCC(=O)Nc3cccc(S(=O)(=O)N4CCCC4)c3)c2n1` as the molecule, how does the Potency read?
A: The Potency was inconclusive: 18.5 µM [inhibitor, single point].

Q: Which Potency does the source give for `CCn1cc([N+](=O)[O-])c(C(=O)N2N=C(c3ccc(OC)cc3OC)CC2c2ccccc2O)n1` (centres undefined) here?
A: The Potency was active: 10.4 µM.

Q: With `Nc1c(C(=O)NCCc2ccccc2)sc2nc(N3CCOCC3)c3c(c12)CCCC3` as the molecule, how does the activity change, negative = inhibition read?
A: The activity change, negative = inhibition was inactive: 6.61% [at 5.75 µM].

Q: With `COCCNC(=S)N1CCN(c2nc(-c3ccccc3)cs2)CC1` as the molecule, how does the Potency read?
A: The Potency was active: 11.7 µM.

Q: With `CCOc1ccccc1NC(=O)C(=O)CC(=O)c1ccc(OC)cc1` as the molecule, how does the Potency read?
A: Its Potency is “inactive”.

Q: Which Potency does the source give for `Cc1ccc2nc(-c3ccc(NC(=O)CSc4ccccc4)cc3)[nH]c2c1` here?
A: Its Potency is inconclusive: 4.15 µM [inhibitor, single point].

Q: For `COc1ccccc1N1CCN(C(=O)c2c(-c3c(F)cccc3Cl)noc2C)CC1`, which Potency is on record?
A: Its Potency is active: 11.7 µM.

Q: With `CC12CCC(=O)N1C(C(=O)NNC(=O)c1ccc(F)cc1)CS2` (centres undefined) as the molecule, how does the Potency read?
A: The Potency was “inactive”.

Q: With `Cc1c(NC(=O)C(C)Sc2nccn2C)c(=O)n(-c2ccccc2)n1C` (centres undefined) as the molecule, how does the Potency read?
A: The Potency was inconclusive: 13.1 µM [inhibitor, single point].

Q: For `COC(=O)CCCC1=CC2=CC(=O)C(C)(OC(=O)c3cccs3)C(=O)C2=CN1c1ccc(OC)cc1` (centres undefined), which Potency is on record?
A: The Potency was active: 13.1 µM.

Q: For `Cc1cc(C)c2c(n1)nn1c(-n3ccnc3)cc(C)nc21`, which Potency is on record?
A: Its Potency is inconclusive: 4.15 µM [inhibitor, single point].

Q: For `CCOC(=O)C(CC)Sc1nnc2n1C(C)(C)Cc1ccccc1-2` (centres undefined), which Potency is on record?
A: The Potency was inconclusive: 18.5 µM [inhibitor, single point].

Q: With `CC(=O)N1CCN(c2ccc(NC(=O)c3cccc(OCc4ccccc4)c3)cc2)CC1` as the molecule, how does the Potency read?
A: Its Potency is inconclusive: 18.5 µM [inhibitor, single point].

Q: For `CC(=O)c1cccc(CN2CCC(C(=O)Nc3ccc(-c4cccc(C)c4)cc3)CC2)c1`, which Potency is on record?
A: Its Potency is “inactive”.
